From PubChem BioAssay AID328 (DTP/NCI, 2004)
The list does not hold the whole screen: it gathers tests that were run many times, whatever their T/C, doses with no T/C, and many T/C values between a quarter and a half above the control. Other doses and runs of a compound stand elsewhere. T/C: endpoint of the treated group in % of that of the vehicle group. Some entries give survivors of the animals treated and no T/C: the source files T/C as zero there, which appears to mark a toxic dose or a test without result, not a measured value. Some doses without a T/C left all or most animals alive at the check, yet need not have been tolerated: the source hardly ever lists a survival T/C far under the control, and the zero likely stands for such cases as well. Counts of survivors are from the toxicity check (mostly the fifth day) where no day follows; animals may have died later. Schedules are NCI's codes, read here as Q, the interval in days (D) or hours (H), X, the number of doses. For survival time, this PubChem deposit counts one and a half times the control or more as active, and values a quarter to a half above the control carry no call in these data; other NCI protocols may use other cut-offs.

Tested on: BDF1 mice, P388 leukemia ip, median survival T/C
Assay: NCI In Vivo Anticancer Drug Screen. Data for tumor model P388 Leukemia (intraperitoneal) in B6D2F1 (BDF1) mice
Conditions: T/C endpoint: median survival time, higher T/C = longer survival
Method in brief: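 T/C = treated-group survival ÷ vehicle-control survival; tumour transplanted into mice before dosing.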

O=[N+]([O-])C(CO)(CO)CC(F)(F)F
survivor count (dose: 1.56 mg/kg/injection, schedule: Q04DX003 (ip), vehicle: saline): 6 of 6

COc1ccc(CCO)cc1OC
survivor count (dose: 400.0 mg/kg/injection, schedule: Q04DX003 (ip), vehicle: water): 6 of 6

O=C(NNc1ccccc1)C(F)(F)F
survivor count (dose: 75.0 mg/kg/injection, schedule: Q01DX009 (ip), vehicle: saline with Tween-80): 2 of 6 | survivor count (dose: 115.0 mg/kg/injection, schedule: Q01DX009 (ip), vehicle: saline with Tween-80): 0 of 6 | survivor count (dose: 150.0 mg/kg/injection, schedule: Q04DX003 (ip), vehicle: saline with Tween-80): 6 of 6 | survivor count (dose: 225.0 mg/kg/injection, schedule: Q01DX001 (ip), vehicle: saline with Tween-80): 2 of 6

CN(C)c1ccc(C(=C2C=CC(=[N+](C)C)C=C2)c2ccccc2Cl)cc1
T/C (dose: 10.0 mg/kg/injection, schedule: Q01DX010 (ip), vehicle: saline): 125 % of control | survivor count (dose: 20.0 mg/kg/injection, schedule: Q01DX010 (ip), vehicle: saline): 6 of 6 | survivor count (dose: 40.0 mg/kg/injection, schedule: Q01DX010 (ip), vehicle: saline): 2 of 6

O=c1c(Br)cccc(CN2CCOCC2)c1O
survivor count (dose: 100.0 mg/kg/injection, schedule: Q04DX002 (ip), vehicle: saline with Tween-80): 6 of 6 | survivor count (dose: 200.0 mg/kg/injection, schedule: Q04DX002 (ip), vehicle: saline with Tween-80): 3 of 6

COc1ccc2[nH]c3c(C)c4cc[n+](C)cc4c(C)c3c2c1
survivor count (dose: 12.5 mg/kg/injection, schedule: Q01DX009 (ip), vehicle: saline with Tween-80): 6 of 6 | survivor count (dose: 25.0 mg/kg/injection, schedule: Q01DX009 (ip), vehicle: saline with Tween-80): 6 of 6

C/C(=C\c1ccc(N(C)C)cc1C)[N+](=O)[O-]
T/C (dose: 200.0 mg/kg/injection, schedule: Q01DX009 (ip), vehicle: saline with Tween-80): 128 % of control | T/C (dose: 400.0 mg/kg/injection, schedule: Q01DX009 (ip), vehicle: saline with Tween-80): 127 % of control

C=CCO
survivor count (dose: 100.0 mg/kg/injection, schedule: Q01DX001 (ip), vehicle: saline with Tween-80): 2 of 6 | survivor count (dose: 200.0 mg/kg/injection, schedule: Q01DX001 (ip), vehicle: saline with Tween-80): 0 of 6 | survivor count (dose: 400.0 mg/kg/injection, schedule: Q01DX001 (ip), vehicle: saline with Tween-80): 0 of 6

CN(C)C(=O)c1ccc(C(C)(C)C)cc1
survivor count (dose: 200.0 mg/kg/injection, schedule: Q01DX009 (ip), vehicle: other): 3 of 6 | survivor count (dose: 400.0 mg/kg/injection, schedule: Q01DX009 (ip), vehicle: other): 3 of 6
